Laboratory results reported in PMC8094600.
Results are given in words; binding and its absence hold for the method and conditions named. Binding seen in cells or lysates may run through a third protein. Some binding calls cover weakened binding; strength is not graded here.

By UniProt entry, the sequences of proteins in these tests, tags left out. Where a name states a change or a piece, a line headed by the entry shows the natural chain unless it says otherwise.
UniProt P62330: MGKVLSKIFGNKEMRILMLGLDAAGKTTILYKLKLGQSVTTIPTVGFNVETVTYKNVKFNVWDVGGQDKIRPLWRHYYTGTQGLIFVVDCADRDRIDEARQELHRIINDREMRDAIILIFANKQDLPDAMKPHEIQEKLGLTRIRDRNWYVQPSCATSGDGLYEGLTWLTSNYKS

Tests used:
[1] = target: constitutively active (Q67L, CA) Arf6 fused to GST (UniProt P62330); experiment: pull-down; recombinant GST-Arf6 (Q67L or T44N) as bait with wild type HCT116 cell lysates; Western blot and CBB stained gel; GST alone as control; only the target purified
[2] = target: dominant negative (T44N, DN) Arf6 fused to GST (UniProt P62330); experiment: as above

binding [1]: binds | binding [2]: binds
B1: Pals1 (Protein associated with Lin-7 One, encoded by Membrane Protein Palmitoylated 5, MPP5) (protein, UniProt Q8N3R9 1-675)
chain: MTTSHMNGHVTEESDSEVKNVDLASPEEHQKHREMAVDCPGDLGTRMMPIRRSAQLERIRQQQEDMRRRREEEGKKQELDLNSSMRLKKLAQIPPKTGIDNPMFDTEEGIVLESPHYAVKILEIEDLFSSLKHIQHTLVDSQSQEDISLLLQLVQNKDFQNAFKIHNAITVHMNKASPPFPLISNAQDLAQEVQTVLKPVHHKEGQELTALLNTPHIQALLLAHDKVAEQEMQLEPITDERVYESIGQYGGETVKIVRIEKARDIPLGATVRNEMDSVIISRIVKGGAAEKSGLLHEGDEVLEINGIEIRGKDVNEVFDLLSDMHGTLTFVLIPSQQIKPPPAKETVIHVKAHFDYDPSDDPYVPCRELGLSFQKGDILHVISQEDPNWWQAYREGDEDNQPLAGLVPGKSFQQQREAMKQTIEEDKEPEKSGKLWCAKKNKKKRKKVLYNANKNDDYDNEEILTYEEMSLYHQPANRKRPIILIGPQNCGQNELRQRLMNKEKDRFASAVPHTTRSRRDQEVAGRDYHFVSRQAFEADIAAGKFIEHGEFEKNLYGTSIDSVRQVINSGKICLLSLRTQSLKTLRNSDLKPYIIFIAPPSQERLRALLAKEGKNPKPEELREIIEKTREMEQNNGHYFDTAIVNSDLDKAYQELLRLINKLDTEPQWVPSTWLR
